Test results as given in paper doi:10.1101/2025.06.27.661541.
These are yes or no findings as the source states them, for the method shown. Binding can be weak; no strength is given. Sequences can lack the tags named with a protein.

Columns and labels:
[1] = biological target: T1, MinC, bacterial two-hybrid fusion (Anabaena sp. PCC 7120) (UniProt Q8YRJ1); assay: two-hybrid
T1 sequence: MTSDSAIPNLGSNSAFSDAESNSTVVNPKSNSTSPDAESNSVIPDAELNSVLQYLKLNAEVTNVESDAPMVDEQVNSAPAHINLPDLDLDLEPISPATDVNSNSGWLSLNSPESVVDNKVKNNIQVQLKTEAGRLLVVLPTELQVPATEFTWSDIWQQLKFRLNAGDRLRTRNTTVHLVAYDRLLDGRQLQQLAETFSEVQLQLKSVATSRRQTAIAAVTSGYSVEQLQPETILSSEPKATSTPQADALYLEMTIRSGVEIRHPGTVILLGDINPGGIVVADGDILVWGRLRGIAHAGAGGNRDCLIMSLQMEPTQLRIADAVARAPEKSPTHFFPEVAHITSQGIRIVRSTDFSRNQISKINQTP

[2] = biological target: CorR, bacterial two-hybrid fusion (Anabaena sp. PCC 7120); assay: two-hybrid

Cdv3, bacterial two-hybrid fusion (Anabaena sp. PCC 7120)
binding [1]: binds

MinE, bacterial two-hybrid fusion (Anabaena sp. PCC 7120)
binding [1]: binds

B1: MinC, bacterial two-hybrid fusion (protein, UniProt Q8YRJ1 1-366)
chain: T1 sequence
binding [2]: binds
